In the supplement of paper PMC8612539:
Values after ≈ are worked out from the molar mass of the structure shown. Further values from the same series stand in other lists.

System: Escherichia coli
Assay: minimum inhibitory concentration (MIC)
Procedure: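 Broth microdilution MIC (Sensititre BOPO7F bovine plate, CLSI methods) of 19 antimicrobials against field isolates of P. multocida, M. haemolytica, H. somni (deep nasopharyngeal swabs) and E. coli, Enterococcus spp. (rectal swabs) from weaned dairy heifers. Incubation 16-24 h at 35 C. MIC is the lowest concentration preventing visible growth. Values with <= or > lie at the tested range limits. Trimethoprim-sulfamethoxazole is given as the trimethoprim component of a 1:19 mixture.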

CO/N=C(\C(=O)N[C@@H]1C(=O)N2C(C(=O)O)=C(CSC(=O)c3ccco3)CS[C@H]12)c1csc(N)n1 [Ceftiofur]
Conditions	minimum inhibitory concentration [µg/mL]
isolate (source animal id): 221	≤ 0.25
isolate (source animal id): 222	≤ 0.25
isolate (source animal id): 223	0.5 (≈ 0.955 µM)
isolate (source animal id): 224	≤ 0.25
isolate (source animal id): 225	0.5 (≈ 0.955 µM)
isolate (source animal id): 226	> 8
isolate (source animal id): 227	≤ 0.25
isolate (source animal id): 228	0.5 (≈ 0.955 µM)
isolate (source animal id): 229	0.5 (≈ 0.955 µM)
isolate (source animal id): 230	0.5 (≈ 0.955 µM)
isolate (source animal id): 231	0.5 (≈ 0.955 µM)
isolate (source animal id): 232	0.5 (≈ 0.955 µM)
isolate (source animal id): 233	≤ 0.25
isolate (source animal id): 234	0.5 (≈ 0.955 µM)
isolate (source animal id): 235	≤ 0.25
isolate (source animal id): 236	0.5 (≈ 0.955 µM)
isolate (source animal id): 237	1 (≈ 1.91 µM)
isolate (source animal id): 238	≤ 0.25
isolate (source animal id): 239	0.5 (≈ 0.955 µM)
isolate (source animal id): 240	0.5 (≈ 0.955 µM)
isolate (source animal id): 241	0.5 (≈ 0.955 µM)
isolate (source animal id): 242	0.5 (≈ 0.955 µM)
isolate (source animal id): 243	0.5 (≈ 0.955 µM)
isolate (source animal id): 244	0.5 (≈ 0.955 µM)
isolate (source animal id): 245	1 (≈ 1.91 µM)
isolate (source animal id): 246	0.5 (≈ 0.955 µM)
isolate (source animal id): 247	0.5 (≈ 0.955 µM)
isolate (source animal id): 248	0.5 (≈ 0.955 µM)
isolate (source animal id): 249	0.5 (≈ 0.955 µM)
isolate (source animal id): 250	0.5 (≈ 0.955 µM)
isolate (source animal id): 251	0.5 (≈ 0.955 µM)
isolate (source animal id): 252	0.5 (≈ 0.955 µM)
isolate (source animal id): 253	0.5 (≈ 0.955 µM)
isolate (source animal id): 254	0.5 (≈ 0.955 µM)
isolate (source animal id): 255	0.5 (≈ 0.955 µM)
isolate (source animal id): 256	0.5 (≈ 0.955 µM)
isolate (source animal id): 257	0.5 (≈ 0.955 µM)
isolate (source animal id): 258	0.5 (≈ 0.955 µM)
isolate (source animal id): 259	0.5 (≈ 0.955 µM)
isolate (source animal id): 260	0.5 (≈ 0.955 µM)
isolate (source animal id): 261	0.5 (≈ 0.955 µM)
isolate (source animal id): 262	0.5 (≈ 0.955 µM)
isolate (source animal id): 263	≤ 0.25
isolate (source animal id): 264	0.5 (≈ 0.955 µM)
isolate (source animal id): 265	0.5 (≈ 0.955 µM)
isolate (source animal id): 266	≤ 0.25
isolate (source animal id): 267	≤ 0.25
isolate (source animal id): 268	0.5 (≈ 0.955 µM)
isolate (source animal id): 269	0.5 (≈ 0.955 µM)
isolate (source animal id): 270	0.5 (≈ 0.955 µM)
isolate (source animal id): 271	≤ 0.25
isolate (source animal id): 272	≤ 0.25
isolate (source animal id): 273	≤ 0.25
isolate (source animal id): 274	0.5 (≈ 0.955 µM)
isolate (source animal id): 275	≤ 0.25
isolate (source animal id): 276	0.5 (≈ 0.955 µM)
isolate (source animal id): 277	≤ 0.25
isolate (source animal id): 278	0.5 (≈ 0.955 µM)
isolate (source animal id): 279	0.5 (≈ 0.955 µM)
isolate (source animal id): 280	0.5 (≈ 0.955 µM)
isolate (source animal id): 281	0.5 (≈ 0.955 µM)
isolate (source animal id): 282	0.5 (≈ 0.955 µM)
isolate (source animal id): 283	0.5 (≈ 0.955 µM)
isolate (source animal id): 284	1 (≈ 1.91 µM)
isolate (source animal id): 285	> 8
isolate (source animal id): 286	0.5 (≈ 0.955 µM)
isolate (source animal id): 287	0.5 (≈ 0.955 µM)
isolate (source animal id): 288	≤ 0.25
isolate (source animal id): 289	0.5 (≈ 0.955 µM)
isolate (source animal id): 290	0.5 (≈ 0.955 µM)
isolate (source animal id): 291	0.5 (≈ 0.955 µM)
isolate (source animal id): 292	0.5 (≈ 0.955 µM)
isolate (source animal id): 293	> 8
isolate (source animal id): 294	≤ 0.25
isolate (source animal id): 295	0.5 (≈ 0.955 µM)
isolate (source animal id): 296	≤ 0.25
isolate (source animal id): 297	0.5 (≈ 0.955 µM)
isolate (source animal id): 298	0.5 (≈ 0.955 µM)
isolate (source animal id): 299	≤ 0.25
isolate (source animal id): 300	0.5 (≈ 0.955 µM)
isolate (source animal id): 301	0.5 (≈ 0.955 µM)
isolate (source animal id): 302	≤ 0.25
isolate (source animal id): 303	≤ 0.25
isolate (source animal id): 304	0.5 (≈ 0.955 µM)
isolate (source animal id): 305	≤ 0.25
isolate (source animal id): 306	0.5 (≈ 0.955 µM)
isolate (source animal id): 307	≤ 0.25
isolate (source animal id): 308	0.5 (≈ 0.955 µM)
isolate (source animal id): 309	0.5 (≈ 0.955 µM)
isolate (source animal id): 310	0.5 (≈ 0.955 µM)
isolate (source animal id): 311	≤ 0.25
isolate (source animal id): 312	≤ 0.25
isolate (source animal id): 313	0.5 (≈ 0.955 µM)
isolate (source animal id): 314	≤ 0.25
isolate (source animal id): 315	≤ 0.25
isolate (source animal id): 316	≤ 0.25
isolate (source animal id): 317	8 (≈ 15.3 µM)
isolate (source animal id): 318	0.5 (≈ 0.955 µM)
isolate (source animal id): 319	≤ 0.25
isolate (source animal id): 320	0.5 (≈ 0.955 µM)
isolate (source animal id): 321	0.5 (≈ 0.955 µM)
isolate (source animal id): 322	8 (≈ 15.3 µM)
isolate (source animal id): 323	≤ 0.25
isolate (source animal id): 324	≤ 0.25
isolate (source animal id): 325	0.5 (≈ 0.955 µM)
isolate (source animal id): 326	≤ 0.25
isolate (source animal id): 327	≤ 0.25
isolate (source animal id): 328	≤ 0.25
isolate (source animal id): 329	≤ 0.25
isolate (source animal id): 330	8 (≈ 15.3 µM)
isolate (source animal id): 331	0.5 (≈ 0.955 µM)
isolate (source animal id): 332	0.5 (≈ 0.955 µM)
isolate (source animal id): 333	0.5 (≈ 0.955 µM)
isolate (source animal id): 334	0.5 (≈ 0.955 µM)
isolate (source animal id): 335	0.5 (≈ 0.955 µM)
isolate (source animal id): 336	≤ 0.25
isolate (source animal id): 337	0.5 (≈ 0.955 µM)
isolate (source animal id): 338	0.5 (≈ 0.955 µM)
isolate (source animal id): 339	≤ 0.25
isolate (source animal id): 340	≤ 0.25
isolate (source animal id): 341	≤ 0.25
